Reference: PubChem BioAssay AID1259297 (Sanger Institute, 2017)
Test: 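Kinase knock-downs that lower colorectal cancer cell viability or act with drugs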 (primary screen). Cell system: human RCM1 colorectal cancer cell line. Knock-down reagent: siRNA pool against human genes. Challenge: separate arms: DMSO vehicle, or one anchor drug at a mild dose: BYL719 1 µM, cetuximab 5 µg/ml, trametinib 10 nM. Read-out: 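Viability per well relative to a non-targeting pool, mean of replicates; robust z-score for knock-down alone; synergy score with BYL719, cetuximab or trametinib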. Reading the numbers: viability z-score, knock-down alone: higher = more viable cells than non-targeting controls; viability, knock-down alone (DMSO): higher = more viable cells; synergy score with trametinib: higher = stronger combined killing with trametinib; synergy score with BYL719: higher = stronger combined killing with BYL719; synergy score with cetuximab: higher = stronger combined killing with cetuximab. Hit rule: 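Essential when the viability robust z-score for knock-down alone is below -3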. Calls: active = essential when knocked down alone; inactive = no clear loss of viability alone.
Shown is an unselected part of 794 reagents tested. 13 of them (1.6%) were called active. 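Calls reflect knock-down without drug only; drug synergy is judged separately, with scores above 0.15 counted as synergy.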 Unmarked entries are inactive. Viability is capped at 1. Reagent sequences are not shown. Not stated in the record: the amount of reagent, the time to read-out.

The first 5 records as a preview:
| Gene | viability z-score, knock-down alone | viability, knock-down alone (DMSO) (fraction of control) | synergy score with trametinib | synergy score with BYL719 | synergy score with cetuximab |
| --- | --- | --- | --- | --- | --- |
| PGK2 | 0.513 | 0.964 | 0.0216 | -0.106 | -0.114 |
| RIPK3 | -0.125 | 0.905 | 0.109 | -0.0431 | -0.0979 |
| DLG3 | 0.308 | 0.945 | 0.0155 | -0.109 | -0.157 |
| SCYL1 | 0.9 | 1 | -0.234 | -0.0728 | -0.118 |
| PRKG2 | 0.9 | 1 | -0.0397 | 0.101 | 0.0663 |

The list itself, from the first entry:
| Gene | viability z-score, knock-down alone | viability, knock-down alone (DMSO) (fraction of control) | synergy score with trametinib | synergy score with BYL719 | synergy score with cetuximab |
| --- | --- | --- | --- | --- | --- |
| PGK2 | 0.513 | 0.964 | 0.0216 | -0.106 | -0.114 |
| RIPK3 | -0.125 | 0.905 | 0.109 | -0.0431 | -0.0979 |
| DLG3 | 0.308 | 0.945 | 0.0155 | -0.109 | -0.157 |
| SCYL1 | 0.9 | 1 | -0.234 | -0.0728 | -0.118 |
| PRKG2 | 0.9 | 1 | -0.0397 | 0.101 | 0.0663 |
| NME7 | 0.808 | 0.991 | -0.0836 | -0.0776 | -0.126 |
| SRPK3 | 0.9 | 1 | 0.0145 | -0.0728 | -0.118 |
| EPHA7 | 0.9 | 1 | 0.119 | -0.0728 | -0.118 |
| DCLK1 | 0.524 | 0.965 | -0.0831 | 0.00784 | -0.00546 |
| TRPM7 | -0.984 | 0.825 | -0.077 | -0.165 | -0.134 |
| VRK2 | 0.337 | 0.948 | 0.0413 | 0.105 | 0.00232 |
| MAST1 | 0.9 | 1 | -0.00346 | 0.00889 | -0.0804 |
| PKN3 | 0.9 | 1 | 0.0656 | -0.00122 | -0.118 |
| EIF2AK4 | 0.612 | 0.973 | 0.0521 | -0.0888 | -0.142 |
| STK11 | -0.483 | 0.872 | 0.251 | 0.0703 | 0.0215 |
| NTRK2 | 0.374 | 0.951 | -0.101 | 0.00942 | -0.126 |
| PIK3R3 | 0.9 | 1 | -0.0775 | -0.0728 | -0.118 |
| RIPK4 | 0.9 | 1 | 0.138 | -0.0728 | -0.0673 |
| RTN4 | -0.364 | 0.883 | 0.0322 | 0.032 | -0.0988 |
| EPHA2 | 0.9 | 1 | -0.0986 | -0.0688 | -0.118 |
| NME1 | 0.9 | 1 | -0.214 | -0.0728 | -0.118 |
| LATS1 | -0.137 | 0.904 | 0.0353 | 0.00155 | 0.00939 |
| MAP2K1 | 0.9 | 1 | 0.13 | 0.0258 | 0.0253 |
| CLSPN | 0.777 | 0.989 | -0.0278 | -0.07 | -0.00657 |
| STK38L | -0.877 | 0.835 | 0.0696 | -0.0638 | 0.0695 |
| MGA | -0.92 | 0.831 | -0.0819 | -0.17 | -0.0811 |
| STRADA | 0.9 | 1 | 0.016 | -0.0702 | -0.0052 |
| PIP5K1A | -0.611 | 0.86 | 0.0231 | -0.102 | -0.0734 |
| HK1 | 0.394 | 0.953 | -0.00949 | -0.088 | -0.16 |
| CDKN1A | 0.9 | 1 | -0.0943 | -0.0378 | -0.0555 |
| HUNK | -2.11 | 0.72 | 0.0623 | -0.0807 | -0.0389 |
| TWF1 | 0.9 | 1 | 0.1 | -0.0703 | -0.105 |
| PKN2 | -0.613 | 0.86 | 0.159 | 0.0193 | 0.0789 |
| GAK | 0.9 | 1 | 0.0405 | 0.0173 | 0.0589 |
| FGFR1 | 0.9 | 1 | -0.0522 | -0.0728 | -0.118 |
| MTOR | 0.8 | 0.991 | 0.109 | -0.0359 | -0.0997 |
| AAK1 | -2.1 | 0.721 | -0.0431 | -0.111 | -0.233 |
| UCK2 | -0.0624 | 0.911 | -0.119 | -0.126 | -0.197 |
| PRKG1 | 0.9 | 1 | -0.0462 | -0.0728 | -0.118 |
| LATS2 | 0.501 | 0.963 | -0.129 | -0.107 | -0.151 |
| DYRK4 | 0.000109 | 0.916 | -0.112 | -0.0486 | -0.0222 |
| ROR1 | 0.9 | 1 | 0.0893 | 0.00863 | -0.118 |
| DBF4 | 0.9 | 1 | -0.0986 | -0.0728 | -0.118 |
| ELP1 | 0.9 | 1 | 0.04 | -0.0332 | -0.118 |
| WIPF1 | 0.229 | 0.938 | 0.0924 | 0.138 | 0.0608 |
| ITPKA | 0.152 | 0.931 | 0.129 | 0.0828 | -0.0751 |
| MAP3K7 | 0.362 | 0.95 | 0.209 | -0.0601 | -0.112 |
| CSNK2A2 | -2.06 | 0.725 | 0.0739 | 0.0115 | 0.0154 |
| LCK | 0.0384 | 0.92 | -0.0623 | -0.00731 | -0.0303 |
| VRK1 | 0.31 | 0.945 | -0.0223 | -0.00615 | -0.11 |
